The chains are these.
T1: TAP-XRN2 (5′-3′-exoribonuclease 2 with a tandem affinity purification tag) (human), Q9H0D6
T1 chain: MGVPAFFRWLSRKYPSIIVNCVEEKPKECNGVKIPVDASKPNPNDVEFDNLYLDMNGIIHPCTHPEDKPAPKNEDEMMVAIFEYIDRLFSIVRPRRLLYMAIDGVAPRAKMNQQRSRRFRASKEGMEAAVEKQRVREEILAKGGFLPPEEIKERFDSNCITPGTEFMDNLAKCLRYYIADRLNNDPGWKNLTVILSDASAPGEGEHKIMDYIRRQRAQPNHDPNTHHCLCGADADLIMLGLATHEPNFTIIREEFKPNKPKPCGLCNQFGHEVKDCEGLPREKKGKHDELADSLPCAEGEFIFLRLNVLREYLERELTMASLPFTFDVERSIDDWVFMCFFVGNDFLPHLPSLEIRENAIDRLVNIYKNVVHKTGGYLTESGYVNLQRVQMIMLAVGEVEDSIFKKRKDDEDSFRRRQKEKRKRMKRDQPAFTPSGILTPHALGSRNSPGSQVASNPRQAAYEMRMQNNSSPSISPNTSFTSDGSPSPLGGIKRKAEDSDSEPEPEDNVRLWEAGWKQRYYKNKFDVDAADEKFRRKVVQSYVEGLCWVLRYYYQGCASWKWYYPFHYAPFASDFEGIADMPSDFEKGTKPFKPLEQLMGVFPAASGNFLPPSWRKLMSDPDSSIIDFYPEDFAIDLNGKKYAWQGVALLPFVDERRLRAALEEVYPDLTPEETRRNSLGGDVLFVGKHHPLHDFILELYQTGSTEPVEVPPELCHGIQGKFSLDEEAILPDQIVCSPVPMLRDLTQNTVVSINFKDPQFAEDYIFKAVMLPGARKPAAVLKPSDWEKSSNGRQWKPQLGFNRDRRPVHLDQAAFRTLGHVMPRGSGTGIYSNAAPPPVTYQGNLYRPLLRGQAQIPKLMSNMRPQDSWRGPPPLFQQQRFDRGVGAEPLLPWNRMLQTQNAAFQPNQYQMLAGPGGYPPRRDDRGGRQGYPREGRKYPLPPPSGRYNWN

The chains behind the UniProt entries cited, without tags or fusion partners.
UniProt Q12888: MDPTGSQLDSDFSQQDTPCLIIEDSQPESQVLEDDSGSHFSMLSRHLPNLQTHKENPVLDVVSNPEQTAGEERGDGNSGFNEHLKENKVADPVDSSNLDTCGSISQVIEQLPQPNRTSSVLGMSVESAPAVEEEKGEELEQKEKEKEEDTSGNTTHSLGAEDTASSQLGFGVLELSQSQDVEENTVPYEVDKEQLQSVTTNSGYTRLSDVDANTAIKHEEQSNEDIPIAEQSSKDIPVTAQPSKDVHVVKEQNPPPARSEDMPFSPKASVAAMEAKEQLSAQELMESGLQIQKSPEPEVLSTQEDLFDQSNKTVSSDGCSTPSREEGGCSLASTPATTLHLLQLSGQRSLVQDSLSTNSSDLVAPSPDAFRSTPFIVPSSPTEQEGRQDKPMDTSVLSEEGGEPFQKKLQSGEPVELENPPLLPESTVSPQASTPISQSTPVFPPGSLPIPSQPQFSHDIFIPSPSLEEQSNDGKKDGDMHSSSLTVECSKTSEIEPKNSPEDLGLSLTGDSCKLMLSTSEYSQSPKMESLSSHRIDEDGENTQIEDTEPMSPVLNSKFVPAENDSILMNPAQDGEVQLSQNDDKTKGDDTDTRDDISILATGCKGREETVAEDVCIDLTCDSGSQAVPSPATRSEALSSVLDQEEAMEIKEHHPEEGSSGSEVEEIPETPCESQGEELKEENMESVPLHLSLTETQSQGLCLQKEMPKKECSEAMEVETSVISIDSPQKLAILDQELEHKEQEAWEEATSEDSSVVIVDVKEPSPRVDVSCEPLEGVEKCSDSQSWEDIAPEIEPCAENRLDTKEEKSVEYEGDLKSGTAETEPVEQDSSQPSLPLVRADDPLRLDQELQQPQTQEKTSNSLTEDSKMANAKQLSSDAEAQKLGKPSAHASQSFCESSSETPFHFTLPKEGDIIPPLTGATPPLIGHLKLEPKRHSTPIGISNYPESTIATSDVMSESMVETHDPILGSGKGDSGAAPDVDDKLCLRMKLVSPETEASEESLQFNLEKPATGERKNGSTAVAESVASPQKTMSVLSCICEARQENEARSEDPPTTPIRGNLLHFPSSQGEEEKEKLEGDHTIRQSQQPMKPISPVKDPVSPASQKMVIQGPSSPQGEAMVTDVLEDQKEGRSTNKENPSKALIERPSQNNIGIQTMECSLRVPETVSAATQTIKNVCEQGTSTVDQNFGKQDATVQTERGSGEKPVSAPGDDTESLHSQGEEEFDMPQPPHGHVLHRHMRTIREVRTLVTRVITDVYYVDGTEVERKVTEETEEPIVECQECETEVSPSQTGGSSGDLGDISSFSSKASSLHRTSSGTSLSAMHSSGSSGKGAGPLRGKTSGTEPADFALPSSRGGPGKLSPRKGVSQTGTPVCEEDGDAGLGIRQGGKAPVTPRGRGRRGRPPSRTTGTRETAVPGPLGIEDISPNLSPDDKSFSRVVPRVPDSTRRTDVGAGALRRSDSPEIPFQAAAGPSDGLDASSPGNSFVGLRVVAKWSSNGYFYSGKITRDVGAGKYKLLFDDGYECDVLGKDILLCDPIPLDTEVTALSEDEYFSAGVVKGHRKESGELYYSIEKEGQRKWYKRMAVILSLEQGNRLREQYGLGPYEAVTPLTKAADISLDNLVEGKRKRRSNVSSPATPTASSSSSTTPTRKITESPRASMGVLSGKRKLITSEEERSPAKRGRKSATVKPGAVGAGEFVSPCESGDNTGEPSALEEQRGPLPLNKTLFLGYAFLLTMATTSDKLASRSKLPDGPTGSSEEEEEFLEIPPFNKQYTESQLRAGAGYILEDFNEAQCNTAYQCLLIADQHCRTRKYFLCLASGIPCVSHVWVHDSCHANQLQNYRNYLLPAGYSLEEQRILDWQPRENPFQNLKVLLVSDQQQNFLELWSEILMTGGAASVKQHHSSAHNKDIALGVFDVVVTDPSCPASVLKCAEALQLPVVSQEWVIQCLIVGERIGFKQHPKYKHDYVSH
UniProt Q16531: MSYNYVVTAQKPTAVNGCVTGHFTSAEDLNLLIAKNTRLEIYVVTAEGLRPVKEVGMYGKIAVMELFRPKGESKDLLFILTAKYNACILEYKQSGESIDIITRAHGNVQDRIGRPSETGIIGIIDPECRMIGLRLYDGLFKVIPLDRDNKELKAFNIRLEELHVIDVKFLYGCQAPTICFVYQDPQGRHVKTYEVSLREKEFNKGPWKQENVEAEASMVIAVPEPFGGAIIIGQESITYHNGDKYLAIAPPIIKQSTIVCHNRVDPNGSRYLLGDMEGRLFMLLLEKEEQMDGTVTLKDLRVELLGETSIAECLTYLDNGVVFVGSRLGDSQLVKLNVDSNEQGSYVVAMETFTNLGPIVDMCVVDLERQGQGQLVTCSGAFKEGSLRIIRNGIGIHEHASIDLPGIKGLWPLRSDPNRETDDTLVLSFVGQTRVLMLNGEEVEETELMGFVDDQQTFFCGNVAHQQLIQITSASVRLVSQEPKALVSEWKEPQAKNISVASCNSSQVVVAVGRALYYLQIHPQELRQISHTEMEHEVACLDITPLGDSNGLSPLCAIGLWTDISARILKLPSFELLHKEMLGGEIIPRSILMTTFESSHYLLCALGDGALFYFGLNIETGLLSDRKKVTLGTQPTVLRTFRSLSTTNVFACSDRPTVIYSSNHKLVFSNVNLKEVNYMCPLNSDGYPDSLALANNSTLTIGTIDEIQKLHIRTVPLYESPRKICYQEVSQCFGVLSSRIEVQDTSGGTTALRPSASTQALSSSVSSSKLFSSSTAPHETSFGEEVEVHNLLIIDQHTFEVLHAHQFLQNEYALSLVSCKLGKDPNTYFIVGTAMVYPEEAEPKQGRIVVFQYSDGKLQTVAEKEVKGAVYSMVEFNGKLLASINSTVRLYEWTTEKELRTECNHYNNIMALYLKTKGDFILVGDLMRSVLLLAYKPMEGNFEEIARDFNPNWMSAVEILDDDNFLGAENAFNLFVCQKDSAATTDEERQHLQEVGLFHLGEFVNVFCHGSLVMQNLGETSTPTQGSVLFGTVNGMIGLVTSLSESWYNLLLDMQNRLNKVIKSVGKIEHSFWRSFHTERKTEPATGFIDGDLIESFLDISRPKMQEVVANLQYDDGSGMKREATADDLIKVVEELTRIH
UniProt P12956: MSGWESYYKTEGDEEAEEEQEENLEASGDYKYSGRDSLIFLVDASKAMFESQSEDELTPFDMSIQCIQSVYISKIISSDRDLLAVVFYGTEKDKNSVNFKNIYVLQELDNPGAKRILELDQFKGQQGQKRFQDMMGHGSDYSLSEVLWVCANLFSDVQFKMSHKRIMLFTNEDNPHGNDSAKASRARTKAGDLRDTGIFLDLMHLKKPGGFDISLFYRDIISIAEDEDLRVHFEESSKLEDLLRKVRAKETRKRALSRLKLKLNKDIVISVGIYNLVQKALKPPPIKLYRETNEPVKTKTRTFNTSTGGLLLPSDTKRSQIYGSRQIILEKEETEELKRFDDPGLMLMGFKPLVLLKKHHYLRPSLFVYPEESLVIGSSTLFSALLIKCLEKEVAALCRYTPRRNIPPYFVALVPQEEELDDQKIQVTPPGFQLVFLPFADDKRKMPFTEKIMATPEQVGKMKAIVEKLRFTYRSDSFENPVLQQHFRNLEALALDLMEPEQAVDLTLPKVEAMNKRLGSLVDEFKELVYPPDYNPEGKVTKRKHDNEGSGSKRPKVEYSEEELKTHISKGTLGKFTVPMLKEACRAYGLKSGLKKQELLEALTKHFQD
UniProt P13010: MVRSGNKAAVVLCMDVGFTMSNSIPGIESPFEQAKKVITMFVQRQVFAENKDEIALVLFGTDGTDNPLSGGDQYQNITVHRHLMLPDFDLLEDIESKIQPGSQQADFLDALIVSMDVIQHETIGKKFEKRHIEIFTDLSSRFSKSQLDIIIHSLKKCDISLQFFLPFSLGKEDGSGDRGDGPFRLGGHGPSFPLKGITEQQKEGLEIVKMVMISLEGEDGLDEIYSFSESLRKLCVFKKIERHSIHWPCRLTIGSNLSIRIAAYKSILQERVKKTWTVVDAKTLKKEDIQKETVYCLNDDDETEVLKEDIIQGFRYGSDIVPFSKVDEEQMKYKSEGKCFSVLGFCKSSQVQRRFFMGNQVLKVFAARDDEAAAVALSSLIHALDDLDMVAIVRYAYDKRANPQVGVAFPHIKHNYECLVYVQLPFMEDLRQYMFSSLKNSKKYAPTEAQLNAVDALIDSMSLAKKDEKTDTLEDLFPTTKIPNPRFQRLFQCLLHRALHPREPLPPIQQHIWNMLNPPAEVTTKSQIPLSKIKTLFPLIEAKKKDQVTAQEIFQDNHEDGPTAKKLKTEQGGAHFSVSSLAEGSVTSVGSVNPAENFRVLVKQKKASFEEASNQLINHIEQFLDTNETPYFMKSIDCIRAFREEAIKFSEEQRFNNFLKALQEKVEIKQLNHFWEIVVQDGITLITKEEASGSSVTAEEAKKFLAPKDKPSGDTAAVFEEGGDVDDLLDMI
UniProt P09874: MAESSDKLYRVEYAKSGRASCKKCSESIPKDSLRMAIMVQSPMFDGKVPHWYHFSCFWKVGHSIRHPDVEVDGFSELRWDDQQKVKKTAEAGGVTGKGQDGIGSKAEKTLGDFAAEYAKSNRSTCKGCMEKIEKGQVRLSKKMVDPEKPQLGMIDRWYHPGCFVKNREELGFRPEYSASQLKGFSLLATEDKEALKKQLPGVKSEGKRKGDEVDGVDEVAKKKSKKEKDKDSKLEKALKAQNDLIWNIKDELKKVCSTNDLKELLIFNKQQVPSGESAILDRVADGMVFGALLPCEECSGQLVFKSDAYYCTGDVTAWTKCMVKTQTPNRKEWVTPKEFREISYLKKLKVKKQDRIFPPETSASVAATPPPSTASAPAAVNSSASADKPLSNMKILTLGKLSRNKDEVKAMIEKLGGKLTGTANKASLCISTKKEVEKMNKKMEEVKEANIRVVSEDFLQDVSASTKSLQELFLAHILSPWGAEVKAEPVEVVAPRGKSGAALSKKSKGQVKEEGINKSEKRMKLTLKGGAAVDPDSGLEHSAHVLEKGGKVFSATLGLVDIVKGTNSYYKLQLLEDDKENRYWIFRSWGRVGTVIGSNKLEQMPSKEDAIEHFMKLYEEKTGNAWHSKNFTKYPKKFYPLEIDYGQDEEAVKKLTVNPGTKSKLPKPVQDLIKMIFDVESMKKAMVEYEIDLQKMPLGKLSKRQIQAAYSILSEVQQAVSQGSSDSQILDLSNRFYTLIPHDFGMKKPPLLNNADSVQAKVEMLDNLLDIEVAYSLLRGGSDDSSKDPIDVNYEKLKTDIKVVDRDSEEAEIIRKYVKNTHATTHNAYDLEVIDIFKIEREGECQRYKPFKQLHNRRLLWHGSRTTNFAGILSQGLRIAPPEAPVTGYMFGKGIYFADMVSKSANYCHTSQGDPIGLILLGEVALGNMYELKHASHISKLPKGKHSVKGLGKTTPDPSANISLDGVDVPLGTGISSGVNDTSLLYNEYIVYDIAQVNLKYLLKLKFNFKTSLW
UniProt P12004: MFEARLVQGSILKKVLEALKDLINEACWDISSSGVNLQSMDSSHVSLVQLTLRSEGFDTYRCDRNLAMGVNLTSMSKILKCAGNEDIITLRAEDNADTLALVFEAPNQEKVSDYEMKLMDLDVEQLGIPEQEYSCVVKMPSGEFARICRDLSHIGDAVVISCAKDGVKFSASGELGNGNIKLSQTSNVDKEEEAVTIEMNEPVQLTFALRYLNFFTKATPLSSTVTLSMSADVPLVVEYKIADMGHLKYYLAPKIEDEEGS
UniProt P27694: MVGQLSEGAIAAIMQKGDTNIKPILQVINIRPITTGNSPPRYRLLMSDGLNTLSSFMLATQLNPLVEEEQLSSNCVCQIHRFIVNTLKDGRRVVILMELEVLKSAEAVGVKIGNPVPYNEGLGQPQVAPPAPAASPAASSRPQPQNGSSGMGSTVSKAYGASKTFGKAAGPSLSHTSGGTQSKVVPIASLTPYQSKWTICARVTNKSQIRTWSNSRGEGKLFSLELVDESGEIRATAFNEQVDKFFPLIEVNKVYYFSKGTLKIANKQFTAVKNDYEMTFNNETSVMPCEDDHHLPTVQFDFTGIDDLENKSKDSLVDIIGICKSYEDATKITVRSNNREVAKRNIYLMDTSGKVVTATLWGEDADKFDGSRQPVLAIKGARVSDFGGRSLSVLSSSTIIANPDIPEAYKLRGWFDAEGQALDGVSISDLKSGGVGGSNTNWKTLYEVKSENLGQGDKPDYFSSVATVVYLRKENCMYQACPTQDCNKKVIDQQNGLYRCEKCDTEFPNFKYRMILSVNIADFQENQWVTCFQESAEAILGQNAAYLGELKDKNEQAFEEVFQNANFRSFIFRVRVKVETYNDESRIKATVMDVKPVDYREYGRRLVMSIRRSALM

T2: TAP-XRN2 (5′-3′-exoribonuclease 2 with a tandem affinity purification tag) (human) (UniProt Q9H0D6)
T2 sequence: T1 chain

B1: Kub5-Hera (K-H/RPRD1B), Q9NQG5 1-326 (protein)
chain: MSSFSESALEKKLSELSNSQQSVQTLSLWLIHHRKHAGPIVSVWHRELRKAKSNRKLTFLYLANDVIQNSKRKGPEFTREFESVLVDAFSHVAREADEGCKKPLERLLNIWQERSVYGGEFIQQLKLSMEDSKSPPPKATEEKKSLKRTFQQIQEEEDDDYPGSYSPQDPSAGPLLTEELIKALQDLENAASGDATVRQKIASLPQEVQDVSLLEKITDKEAAERLSKTVDEACLLLAEYNGRLAAELEDRRQLARMLVEYTQNQKDVLSEKEKKLEEYKQKLARVTQVRKELKSHIQSLPDLSLLPNVTGGLAPLPSAGDLFSTD
B2: CARF, Q9NXV6 1-580 (protein)
chain: MAQEVSEYLSQNPRVAAWVEALRCDGETDKHWRHRRDFLLRNAGDLAPAGGAASASTDEAADAESGTRNRQLQQLISFSMAWANHVFLGCRYPQKVMDKILSMAEGIKVTDAPTYTTRDELVAKVKKRGISSSNEGVEEPSKKRVIEGKNSSAVEQDHAKTSAKTERASAQQENSSTCIGSAIKSESGNSARSSGISSQNSSTSDGDRSVSSQSSSSVSSQVTTAGSGKASEAEAPDKHGSASFVSLLKSSVNSHMTQSTDSRQQSGSPKKSALEGSSASASQSSSEIEVPLLGSSGSSEVELPLLSSKPSSETASSGLTSKTSSEASVSSSVAKNSSSSGTSLLTPKSSSSTNTSLLTSKSTSQVAASLLASKSSSQTSGSLVSKSTSLASVSQLASKSSSQTSTSQLPSKSTSQSSESSVKFSCKLTNEDVKQKQPFFNRLYKTVAWKLVAVGGFSPNVNHGELLNAAIEALKATLDVFFVPLKELADLPQNKSSQESIVCELRCKSVYLGTGCGKSKENAKAVASREALKLFLKKKVVVKICKRKYRGSEIEDLVLLDEESRPVNLPPALKHPQELL
B3: NF-kB repressing factor, O15226 1-690 (protein)
chain: MEKILQMAEGIDIGEMPSYDLVLSKPSKGQKRHLSTCDGQNPPKKQAGSKFHARPRFEPVHFVASSSKDERQEDPYGPQTKEVNEQTHFASMPRDIYQDYTQDSFSIQDGNSQYCDSSGFILTKDQPVTANMYFDSGNPAPSTTSQQANSQSTPEPSPSQTFPESVVAEKQYFIEKLTATIWKNLSNPEMTSGSDKINYTYMLTRCIQACKTNPEYIYAPLKEIPPADIPKNKKLLTDGYACEVRCQNIYLTTGYAGSKNGSRDRATELAVKLLQKRIEVRVVRRKFKHTFGEDLVVCQIGMSSYEFPPALKPPEDLVVLGKDASGQPIFNASAKHWTNFVITENANDAIGILNNSASFNKMSIEYKYEMMPNRTWRCRVFLQDHCLAEGYGTKKTSKHAAADEALKILQKTQPTYPSVKSSQCHTGSSPRGSGKKKDIKDLVVYENSSNPVCTLNDTAQFNRMTVEYVYERMTGLRWKCKVILESEVIAEAVGVKKTVKYEAAGEAVKTLKKTQPTVINNLKKGAVEDVISRNEIQGRSAEEAYKQQIKEDNIGNQLLRKMGWTGGGLGKSGEGIREPISVKEQHKREGLGLDVERVNKIAKRDIEQIIRNYARSESHTDLTFSRELTNDERKQIHQIAQKYGLKSKSHGVGHDRYLVVGRKRRKEDLLDQLKQEGQVGHYELVMPQAN
B4: NONO (p54(nrb)) (protein, UniProt Q15233 1-471)
chain: MQSNKTFNLEKQNHTPRKHHQHHHQQQHHQQQQQQPPPPPIPANGQQASSQNEGLTIDLKNFRKPGEKTFTQRSRLFVGNLPPDITEEEMRKLFEKYGKAGEVFIHKDKGFGFIRLETRTLAEIAKVELDNMPLRGKQLRVRFACHSASLTVRNLPQYVSNELLEEAFSVFGQVERAVVIVDDRGRPSGKGIVEFSGKPAARKALDRCSEGSFLLTTFPRPVTVEPMDQLDDEEGLPEKLVIKNQQFHKEREQPPRFAQPGSFEYEYAMRWKALIEMEKQQQDQVDRNIKEAREKLEMEMEAARHEHQVMLMRQDLMRRQEELRRMEELHNQEVQKRKQLELRQEEERRRREEEMRRQQEEMMRRQQEGFKGTFPDAREQEIRMGQMAMGGAMGINNRGAMPPAPVPAGTPAPPGPATMMPDGTLGLTPPTTERFGQAATMEGIGAIGGTPPAFNRAAPGAEFAPNKRRRY
B5: DDX1 (protein, UniProt Q92499 1-740)
chain: MAAFSEMGVMPEIAQAVEEMDWLLPTDIQAESIPLILGGGDVLMAAETGSGKTGAFSIPVIQIVYETLKDQQEGKKGKTTIKTGASVLNKWQMNPYDRGSAFAIGSDGLCCQSREVKEWHGCRATKGLMKGKHYYEVSCHDQGLCRVGWSTMQASLDLGTDKFGFGFGGTGKKSHNKQFDNYGEEFTMHDTIGCYLDIDKGHVKFSKNGKDLGLAFEIPPHMKNQALFPACVLKNAELKFNFGEEEFKFPPKDGFVALSKAPDGYIVKSQHSGNAQVTQTKFLPNAPKALIVEPSRELAEQTLNNIKQFKKYIDNPKLRELLIIGGVAARDQLSVLENGVDIVVGTPGRLDDLVSTGKLNLSQVRFLVLDEADGLLSQGYSDFINRMHNQIPQVTSDGKRLQVIVCSATLHSFDVKKLSEKIMHFPTWVDLKGEDSVPDTVHHVVVPVNPKTDRLWERLGKSHIRTDDVHAKDNTRPGANSPEMWSEAIKILKGEYAVRAIKEHKMDQAIIFCRTKIDCDNLEQYFIQQGGGPDKKGHQFSCVCLHGDRKPHERKQNLERFKKGDVRFLICTDVAARGIDIHGVPYVINVTLPDEKQNYVHRIGRVGRAERMGLAISLVATEKEKVWYHVCSSRGKGCYNTRLKEDGGCTIWYNEMQLLSEIEEHLNCTISQVEPDIKVPVDEFDGKVTYGQKRAAGGGSYKGHVDILAPTVQELAALEKEAQTSFLHLGYLPNQLFRTF
B6: SSBP1 (protein, UniProt Q04837 17-148)
chain: ESETTTSLVLERSLNRVHLLGRVGQDPVLRQVEGKNPVTIFSLATNEMWRSGDSEVYQLGDVSQKTTWHRISVFRPGLRDVAYQYVKKGSRIYLEGKIDYGEYMDKNNVRRQATTIIADNIIFLSDQTKEKE

These are yes or no findings as the source states them, for the method shown. Binding seen in cells or lysates may run through a third protein. These calls come from enrichment with a bait or labelling near it, and not all partners need be listed. No binding means not detected with the bait. Where a sequence is shown, tags or fusion partners need not be part of it.

In one test the target is T1, TAP-XRN2 (5′-3′-exoribonuclease 2 with …). Nature of the test: affinity purification with mass spectrometry; tandem affinity purification of TAP-XRN2 from stable cells, TAP-empty vector as negative control; three biological replicates; hits filtered (peptide sequences ≥ 5, PSM ≥ 5, % coverage ≥ 5, TAP-XRN2/TAP ratio > 1.0). As to conditions: remark: other sources report otherwise.
Turning to B1, the binding result was “binds”. Still for that read-out and setting: for B2 the value was “no binding”; for B3, “no binding”.

The next test addresses T2, TAP-XRN2 (5′-3′-exoribonuclease 2 with a tandem affinity purification tag) (human). Described as above.
Conditions: not given
53BP1 (from UniProt Q12888 1-1972): the binding entry was “no binding”.

Take DDB1 (from UniProt Q16531 1-1140): the binding result is recorded as “binds”. For DNA-PKcs (from UniProt P78527 1-4128), the binding entry is listed as “binds”. Turning to Ku70 (from UniProt P12956 1-609), the binding result was “binds”. Take Ku80 (from UniProt P13010 1-732): the binding entry is on record as “binds”. Same read-out and setting: for “PARP1 (endogenous, TAP-XRN2 cells) (from UniProt P09874 1-1014)” the value was “binds”; for PCNA (from UniProt P12004 1-261), “binds”; for RPA1 (from UniProt P27694 1-616), “binds”. As to B4, the binding result is “binds”.

With B5, the binding entry was “binds”.

B6: the binding entry is given as “binds”.

For the origin of these results see paper PMC7455564.
